From patent US20180169242A1, “PHARMACEUTICAL COMBINATION FOR CANCER TREATMENT AND THE THERAPEUTIC USE THEREOF” (Shiner Pharm Corp., priority 2016, published 2018)
At least one structure is not confirmed: it was looked up by name or label, or the drawing left a doubt.

Tested on: Lewis lung carcinoma cells
Assay: Local tumor growth (tumor volume) in Lewis lung carcinoma animal model
Type: in vivo, C57BL/6 mice
Conditions: metformin 200 mg/kg/day, fluvastatin 80 mg/kg/day
Experimental: Lewis lung carcinoma (LLC) model was established.
The cancer inhibiting effect of metformin and statin was examined. After the mice were sacrificed, tumor volume on the right thigh of the mice was measured to deteiiiiine local tumor growth.

CC(C)n1c(/C=C/C(O)CC(O)CC(=O)O)c(-c2ccc(F)cc2)c2ccccc21 (centres unmarked) [statin, fluvastatin]
therapeutic effect on tumor volume compared with the sham group (no irradiation, day 7 to day 11, tumor volume on right thigh at day 21): did not exhibit any therapeutic effect | local tumor growth / tumor volume when combined with radiotherapy (with 40 Gy irradiation in two 20 Gy fractions (day 8, day 10), compared with RT alone, RT+M and RT+S, day 21): neither combining radiotherapy with metformin alone or with statin alone could suppress local tumor growth
